Experimental data reported in patent publication WO2017102789A1.
These are yes or no findings as the source states them, for the method shown. In cells and extracts the contact can be indirect. Some entries that bind do so weakly or less than the wild type.

Amino acid sequences for entries named in this document (tags omitted). A change or cut given only in a name is not applied to a line headed by its entry.
UniProt P03372: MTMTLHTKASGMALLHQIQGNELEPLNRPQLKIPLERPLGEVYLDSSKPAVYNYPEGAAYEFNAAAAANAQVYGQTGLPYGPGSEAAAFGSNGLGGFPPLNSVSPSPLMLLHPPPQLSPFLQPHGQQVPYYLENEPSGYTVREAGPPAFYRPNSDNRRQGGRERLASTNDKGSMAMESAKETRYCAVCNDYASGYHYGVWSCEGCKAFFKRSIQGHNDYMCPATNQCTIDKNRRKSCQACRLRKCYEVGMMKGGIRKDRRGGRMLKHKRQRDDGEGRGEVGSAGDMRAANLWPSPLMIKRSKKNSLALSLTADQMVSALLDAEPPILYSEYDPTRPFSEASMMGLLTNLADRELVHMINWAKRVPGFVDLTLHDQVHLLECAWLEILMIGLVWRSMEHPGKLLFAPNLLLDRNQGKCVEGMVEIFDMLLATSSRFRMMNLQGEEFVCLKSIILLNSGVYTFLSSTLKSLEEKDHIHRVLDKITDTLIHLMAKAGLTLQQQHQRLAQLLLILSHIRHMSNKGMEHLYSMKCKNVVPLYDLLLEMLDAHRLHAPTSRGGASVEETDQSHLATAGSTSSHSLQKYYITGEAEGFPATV
UniProt P21860: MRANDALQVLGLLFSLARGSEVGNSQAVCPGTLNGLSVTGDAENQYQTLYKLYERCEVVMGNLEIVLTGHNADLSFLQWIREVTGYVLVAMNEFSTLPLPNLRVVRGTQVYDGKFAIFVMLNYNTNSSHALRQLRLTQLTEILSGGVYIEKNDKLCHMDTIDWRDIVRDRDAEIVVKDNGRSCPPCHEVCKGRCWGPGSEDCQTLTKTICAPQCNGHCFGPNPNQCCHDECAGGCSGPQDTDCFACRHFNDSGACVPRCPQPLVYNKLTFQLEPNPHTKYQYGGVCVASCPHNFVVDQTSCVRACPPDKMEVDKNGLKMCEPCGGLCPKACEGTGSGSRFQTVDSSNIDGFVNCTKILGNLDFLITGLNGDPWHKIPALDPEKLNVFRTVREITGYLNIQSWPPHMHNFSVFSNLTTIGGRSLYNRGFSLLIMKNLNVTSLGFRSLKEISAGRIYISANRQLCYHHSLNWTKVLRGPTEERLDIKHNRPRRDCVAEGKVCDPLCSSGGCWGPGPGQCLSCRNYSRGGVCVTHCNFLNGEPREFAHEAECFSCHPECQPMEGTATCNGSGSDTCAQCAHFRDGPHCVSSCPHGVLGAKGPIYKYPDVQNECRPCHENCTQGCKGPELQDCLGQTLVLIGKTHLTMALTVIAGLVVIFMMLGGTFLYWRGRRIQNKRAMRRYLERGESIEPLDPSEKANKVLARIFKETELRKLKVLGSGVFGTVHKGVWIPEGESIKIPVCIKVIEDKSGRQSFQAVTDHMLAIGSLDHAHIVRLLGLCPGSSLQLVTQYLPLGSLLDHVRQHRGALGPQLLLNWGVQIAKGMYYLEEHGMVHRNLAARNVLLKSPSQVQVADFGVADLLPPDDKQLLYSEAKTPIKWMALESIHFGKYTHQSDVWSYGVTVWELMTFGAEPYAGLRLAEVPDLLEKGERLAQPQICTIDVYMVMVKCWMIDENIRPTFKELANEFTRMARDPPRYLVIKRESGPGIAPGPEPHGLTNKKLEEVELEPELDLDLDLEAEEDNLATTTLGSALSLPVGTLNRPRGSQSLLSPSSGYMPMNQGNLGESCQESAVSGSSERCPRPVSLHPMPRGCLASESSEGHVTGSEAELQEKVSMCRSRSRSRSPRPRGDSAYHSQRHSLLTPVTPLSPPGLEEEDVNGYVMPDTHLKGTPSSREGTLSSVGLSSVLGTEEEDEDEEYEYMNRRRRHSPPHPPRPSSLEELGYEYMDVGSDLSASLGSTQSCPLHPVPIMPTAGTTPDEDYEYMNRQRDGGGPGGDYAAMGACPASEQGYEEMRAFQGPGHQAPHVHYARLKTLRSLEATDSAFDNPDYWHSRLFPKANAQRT

Columns and labels:
[1] = target: ERa (estrogen receptor) (human) (UniProt P03372); assay: summary of the co-immunoprecipitation experiments of Example 5
[2] = target: ERa (estrogen receptor) (human) (UniProt P03372); assay: co-immunoprecipitation from lysates of transfected HEK 293 cells (IP anti-HER3, blot ERa; and IP anti-ERa, blot HER3), with and without HRG
[3] = target: ERa (estrogen receptor) (human) (UniProt P03372); assay: co-immunoprecipitation from lysates of transfected HEK 293 cells (IP anti-HER2 trastuzumab, blot ERa; and IP anti-ERa, blot HER2)

binding [1]	binding [2]	binding [3]	Substance
binds	binds	–	HER3 expressed in cells (from UniProt P21860 20-1342) (receptor)
binds	–	binds	HER2 expressed in HEK 293 cells (from UniProt P04626 23-1255) (receptor)
